The conditions of this data set: male, Sprague Dawley, rat, in vivo, po.

The values that follow come from publication PMC7703681 (Journal of medicinal chemistry, 2020).

As to `C[C@](O)(Cn1cc(F)cn1)C(=O)Nc1cnc(C#N)c(C(F)(F)F)c1` [21a, (S)-N-(6-Cyano-5-(trifluoromethyl)pyridin-3-yl)-3-(4-fluoro-1H-pyrazol-1-yl)-2-hydroxy-2-methylpropanamide], the “blood level at 24 h in concentration versus time plot” value was “vast majority of 21a eliminated by 24 h”.
